In article PMC3486835:
Results are given in words; binding and its absence hold for the method and conditions named. In cells and extracts the contact can be indirect. Some results given as binding are weak or reduced against the parent protein; the word gives no strength.

By UniProt entry, the sequences of proteins in these tests, tags left out.
UniProt P08622: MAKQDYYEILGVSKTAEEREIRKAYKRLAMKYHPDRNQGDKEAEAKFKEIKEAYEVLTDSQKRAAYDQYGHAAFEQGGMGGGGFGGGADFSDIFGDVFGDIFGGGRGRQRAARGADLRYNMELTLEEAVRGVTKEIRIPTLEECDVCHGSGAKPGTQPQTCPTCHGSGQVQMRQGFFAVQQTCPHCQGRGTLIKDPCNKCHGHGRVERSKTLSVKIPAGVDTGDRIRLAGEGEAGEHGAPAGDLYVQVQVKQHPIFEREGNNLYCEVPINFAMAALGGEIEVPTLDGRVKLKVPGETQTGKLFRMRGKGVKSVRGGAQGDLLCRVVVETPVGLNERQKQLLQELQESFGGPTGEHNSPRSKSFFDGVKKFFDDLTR

Target: Flag-tagged DnaJ of Escherichia coli (E. coli) (UniProt P08622)
Experiment: co-IP; Flag-tagged Rki or DnaJ from pBAD33 co-expressed with σ^32 from p29SEN-RpoH at 30°C (0.5% L-arabinose, 50 µM IPTG) in E. coli AR3291 (ΔftsH) or in the DnaK depletion strain FA1195 (Ptet dnaKJ, no anhydrotetracycline); anti-Flag M2-agarose, eluted with FLAG peptide; blot with anti-σ^32

binding: binds
B1: heat-shock factor σ^32 (RpoH) of Escherichia coli, plasmid-encoded (protein, UniProt P0AGB3 1-284)
chain: MTDKMQSLALAPVGNLDSYIRAANAWPMLSADEERALAEKLHYHGDLEAAKTLILSHLRFVVHIARNYAGYGLPQADLIQEGNIGLMKAVRRFNPEVGVRLVSFAVHWIKAEIHEYVLRNWRIVKVATTKAQRKLFFNLRKTKQRLGWFNQDEVEMVARELGVTSKDVREMESRMAAQDMTFDLSSDDDSDSQPMAPVLYLQDKSSNFADGIEDDNWEEQAANRLTDAMQGLDERSQDIIRARWLDEDNKSTLQELADRYGVSAERVRQLEKNAMKKLRAAIEA
